# Source: PubChem BioAssay AID445 (National Center for Advancing Translational Sciences (NCATS), 2006)
# The list shows a part of the results. These are further read-outs of the screen, such as a control signal, another cell line or another target. No call is given for them. Compounds called inactive in the main read-out are mostly missing here. The note in brackets gives the kind of curve behind each potency; many fits are weak.
# Assay: IkB Signaling
# Conditions: ABC-DLBCL IkBa-CBG/CBR dual luciferase ratio (green luciferase fused to IkBa over red control in OCI-Ly3 lymphoma cells), 4 h
# Summary of the method: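 Luminescence ratio of IκBα-fused green versus native red beetle luciferase in OCI-Ly3 cells, 4 h post-doxycycline with compound; red signal alone, scaled from basal (0%) to zero light (-100%), flagged nonspecific or cytotoxic effects.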
# [1] = measured here: control luc red channel unless noted
structure (smiles),measurement,setting,value
O=C(Nc1ccc(Cl)cc1)c1cc2c(Cl)nc3ccccc3c2s1,AC50,[1],"39.8 µM [rising, single point]"
Oc1c(Cl)cc(Cl)c2c1NCCC2,AC50,measured here: IkB-luc green channel,"25.1 µM [rising, partial curve]"
same,AC50,measured here: control luc red channel,"39.8 µM [falling, single point]"
COC(=O)CSc1nc2sc3c(c2c(=O)n1Cc1ccccc1)CCC(C(C)(C)C)C3 (stereo not drawn),AC50,[1],"7.94 µM [rising, single point]"
COc1ccc(-c2c3c(nc4sc(C(=O)Nc5ccccc5F)c(N)c24)CC(C)(C)CC3=O)cc1,AC50,[1],"15.8 µM [falling, partial curve]"
O=C(c1ccco1)N1CCN(c2nc(C(F)(F)F)nc3c2nnn3Cc2ccccc2)CC1,AC50,[1],"31.6 µM [falling, partial curve]"
CCN(Cc1ccccc1)C(=O)CN1C(=O)CSc2ccc(S(=O)(=O)N(CC)CC)cc21,AC50,[1],"20 µM [falling, single point]"
COc1cc(-c2noc(CN3CCN(c4cccc(Cl)c4)CC3)n2)cc(OC)c1OC,AC50,[1],"0.158 µM [rising, full curve, poor fit]"
Cc1ccc(NC(=O)CSc2n[nH]c(-c3ccc(F)cc3)n2)cc1F,AC50,[1],"25.1 µM [falling, single point]"
CCOc1ccccc1NC(=O)N1CCN(C)c2ncccc21,AC50,[1],"2 µM [falling, partial curve]"
COc1ccc2nc(NC(=O)c3nc(S(=O)(=O)Cc4ccccc4)ncc3Cl)sc2c1,AC50,[1],"12.6 µM [falling, partial curve]"
Cc1ccc(CN2C(=O)CN(C3CCC(C)CC3)C(=O)C2c2ccc(F)cc2)cc1 (stereo not drawn),AC50,[1],"31.6 µM [falling, single point]"
CCOc1ccc2nc(NC(=O)CSc3nc4c(c(=O)n(C)c(=O)n4C)n3C(C)C)sc2c1,AC50,[1],"25.1 µM [falling, partial curve]"
CCCN(CCC)CCNC(=O)c1cc2c(-c3ccc(Cl)cc3)nn(C)c2s1,AC50,[1],"20 µM [falling, single point]"
Cc1ccccc1S(=O)(=O)Cc1ccc(C(=O)N2CCN(c3ccc(F)cc3)CC2)o1,AC50,[1],"25.1 µM [falling, partial curve]"
COc1ccc(-c2cc(-c3cc(F)ccc3O)[nH]n2)cc1OC,AC50,[1],"15.8 µM [falling, partial curve]"
COc1ccc(N=c2oc3c(OC)cccc3cc2C(=O)NCc2ccco2)cc1OC,AC50,[1],"15.8 µM [falling, partial curve]"
Cc1ccc(CN2CCCn3nc(C(=O)NCc4ccc(OC(C)C)cc4)cc3C2=O)cc1,AC50,[1],"31.6 µM [falling, single point]"
COC(=O)c1ccc(NC(=O)CCc2c(C)nc3c(-c4ccccc4)c(C)nn3c2C)cc1,AC50,[1],"10 µM [falling, partial curve]"
COc1ccc(-n2c(C)c(C(C)=O)c3cc(OC(=O)c4ccc(C)cc4)ccc32)cc1,AC50,[1],"10 µM [falling, partial curve]"
CCC1=Nc2cc(C(=O)NCC(C)c3ccccc3)ccc2Sc2ccc(C)cc21 (stereo not drawn),AC50,[1],"0.0794 µM [falling, full curve]"
Cc1ccc(Cn2cc(C(=O)c3ccc(F)cc3)c(=O)c3cc4c(cc32)OCO4)cc1,AC50,[1],"25.1 µM [falling, single point]"
Oc1ccc2oc3c(c2c1/C=N/n1cnnc1)CCCC3,AC50,[1],"39.8 µM [falling, single point]"
CCOC(=O)Cc1ccc(NC(=O)Nc2ccccc2OCc2cc(=O)n3ccccc3n2)cc1,AC50,[1],"0.0316 µM [falling, full curve]"
O=C(CC1SC(=Nc2ccccc2)N(CCCO)C1=O)Nc1ccc(Cl)cc1 (stereo not drawn),AC50,[1],"12.6 µM [falling, partial curve]"
CC(Oc1ccc(F)cc1)C(=O)Nc1nc(-c2ccc(F)cc2)ns1 (stereo not drawn),AC50,[1],"7.94 µM [falling, full curve]"
CCCCNC(=O)c1ccc2nc(-c3ccco3)c(-c3ccco3)nc2c1,AC50,[1],"39.8 µM [rising, single point] [measured here: IkB-luc green channel]"
COc1ccc(Cl)cc1NS(=O)(=O)c1ccc(S(=O)(=O)N2CCCC2)cc1,AC50,[1],"39.8 µM [falling, single point]"
CCCc1nnc(NC(=O)c2cccc(OC)c2)s1,AC50,[1],"10 µM [falling, partial curve]"
CC(C)CC(=O)Nc1ccc2nc(SCC(=O)N3CCCC3)sc2c1,AC50,[1],"25.1 µM [falling, single point]"
COc1ccccc1N1CCN(C(=O)c2ccccc2Oc2ccccc2)CC1,AC50,[1],"12.6 µM [falling, partial curve]"
Cc1ccc(NC(=O)CCn2nc(C)c(S(=O)(=O)N3CCCCC3)c2C)cc1Cl,AC50,[1],"31.6 µM [falling, single point]"
CCN(c1ccc(C)cc1)S(=O)(=O)c1nnc(NC(=O)C2CCCCC2)s1,AC50,[1],"0.398 µM [falling, full curve]"
CCOc1ccccc1N(CC(=O)NC1CCCCC1)C(=O)CCCC(=O)Nc1ccccn1,AC50,[1],"15.8 µM [falling, partial curve]"
CCc1ccc(NC(=O)CSC2=Nc3ccccc3C3=NC(CC(=O)NC4CCCCC4)C(=O)N23)cc1 (stereo not drawn),AC50,[1],"0.251 µM [falling, full curve]"
COc1ccc(NC(=O)C2CCCN(S(=O)(=O)c3ccc4c(c3)CCCC(=O)N4)C2)cc1OC (stereo not drawn),AC50,[1],"39.8 µM [falling, single point]"
N/C(CSc1nc(-c2ccccc2)c(-c2ccccc2)o1)=N\O,AC50,[1],"15.8 µM [falling, partial curve]"
COc1ccc(-c2cc(C(=O)O)c(C)o2)cc1OC,AC50,[1],"0.0251 µM [falling, full curve]"
Cc1ccc(OCC(=O)NCC2(N3CCOCC3)CCCCC2)cc1C,AC50,[1],"39.8 µM [falling, single point]"
COc1cccc(-c2nnc(Nc3nc4c(F)cccc4s3)o2)c1,AC50,[1],"0.1 µM [falling, full curve]"
CCCCN(CCCC)CCNC(=O)c1cn(CC)c2ccc(S(=O)(=O)N3CCc4ccccc4C3)cc2c1=O,AC50,[1],"15.8 µM [falling, partial curve]"
Cc1oc(-c2cccc(Cl)c2)nc1CN1CCC(C(=O)NCCCN2CCN(c3ccccc3F)CC2)CC1,AC50,[1],"20 µM [falling, partial curve]"
COc1ccc(N(Cc2cccs2)C(=O)c2ccc(Br)o2)cc1,AC50,[1],"5.01 µM [falling, partial curve]"
Cc1noc(C)c1-c1ccc2ncnc(NC3CC3)c2c1,AC50,[1],"3.98 µM [rising, partial curve] [measured here: IkB-luc green channel]"
Cc1ccn2c(Nc3ccc(F)cc3)c(-c3ccccn3)nc2c1,AC50,[1],"25.1 µM [falling, partial curve]"
COc1ccc(OC)c(Nc2ncnc3c2cnn3-c2cccc(Cl)c2)c1,AC50,[1],"1 µM [falling, partial curve]"
CCCCC(=O)OC1=C(C(C)=O)N(Cc2ccccc2)S(=O)(=O)c2ccccc21,AC50,[1],"31.6 µM [falling, single point]"
CCC(Sc1ncnc2sc3c(c12)CCCC3)C(=O)OC(C)C (stereo not drawn),AC50,[1],"31.6 µM [falling, partial curve]"
COc1ccccc1N1CCN(C(=O)CCc2nnc3n(C)c(=O)c4sccc4n23)CC1,AC50,[1],"3.98 µM [falling, partial curve]"
Cc1cccc(C(=O)Nc2ccc(C(=O)OCc3cc(=O)n4nc(C5CC5)sc4n3)cc2)c1,AC50,[1],"25.1 µM [rising, single point]"
COc1ccc(NC(=O)C2CCCN2S(=O)(=O)c2ccc3c(c2)CCC(=O)N3)cc1Cl (stereo not drawn),AC50,[1],"3.98 µM [falling, partial curve]"
Cc1nnc(NC(=O)c2ccc3ccccc3c2)o1,AC50,[1],"39.8 µM [rising, single point] [measured here: IkB-luc green channel]"
O=C(CCc1ccccc1)Nc1cc(Cl)ccc1O,AC50,[1],"10 µM [falling, partial curve]"
Cc1ccc(NC(=O)C2CCCN2S(=O)(=O)c2ccc3nc(-c4ccccc4)[nH]c3c2)cc1F (stereo not drawn),AC50,[1],"25.1 µM [falling, partial curve]"
CCOc1ccc(CCNC(=O)c2cn(C)c3ccc(S(=O)(=O)N4CCOCC4)cc3c2=O)cc1OCC,AC50,[1],"0.631 µM [rising, full curve]"
Cn1c(=O)c(C#N)c(-c2ccccc2)n2cnnc12,AC50,[1],"7.94 µM [falling, partial curve]"
Cc1cccc(Cn2c(C)c(C)c3cc(C(=O)NCc4ccco4)ccc32)c1,AC50,[1],"7.94 µM [rising, partial curve]"
COc1ccc2[nH]c(=O)c(CN(C(=O)c3cccc(Cl)c3)c3ccccc3OC)cc2c1,AC50,[1],"31.6 µM [falling, single point]"
COc1ccc(S(=O)(=O)NCCc2csc3nc(-c4ccc(Cl)cc4)nn23)cc1C,AC50,[1],"3.16 µM [falling, partial curve]"
CS(=O)(=O)N1CCc2cc(S(=O)(=O)NCc3ccccc3Cl)ccc21,AC50,[1],"0.0251 µM [falling, full curve, poor fit]"
COc1ccc(-c2nc(Cn3c(SCc4cccc(Cl)c4)nc4ccncc43)c(C)o2)cc1,AC50,[1],"10 µM [falling, partial curve]"
Cc1ccc(Sc2c(C)nn(C(=O)COc3ccccc3)c2C)cc1,AC50,[1],"15.8 µM [falling, partial curve]"
Cc1cccc(-n2c(-c3ccco3)nc3c(cnn3-c3ccccc3C)c2=O)c1,AC50,[1],"39.8 µM [falling, single point]"

# Nothing new here: an excerpt of the list.
structure (smiles),measurement,setting,value
COc1ccc2[nH]c(=O)c(CN(C(=O)c3cccc(Cl)c3)c3ccccc3OC)cc2c1,AC50,[1],"31.6 µM [falling, single point]"
COc1ccc(S(=O)(=O)NCCc2csc3nc(-c4ccc(Cl)cc4)nn23)cc1C,AC50,[1],"3.16 µM [falling, partial curve]"
CS(=O)(=O)N1CCc2cc(S(=O)(=O)NCc3ccccc3Cl)ccc21,AC50,[1],"0.0251 µM [falling, full curve, poor fit]"
